Data on twelve substances can be found in article PMC10442857 (ACS Chemical Biology, 2023).

The data set can be described thus: general procedure: Fmoc solid-phase peptide synthesis; Rink amide MBHA resin (0.39 mmol/g); HCTU/DIPEA in NMP. The settings on record: whole synthesis, scale of the general procedure 0.1 mmol; for final LC-MS purity: analytical HPLC-MS.

Some peptides are written in HELM: one residue between dots, names in brackets for other building blocks, links after the first $.

For H-GS-Dap-Nal-1-LSPT-(SulfoCy5-K)-NH2, the “final LC-MS purity” value is reported as 95% and the isolated yield is on record as 7%.
Take “PEPTIDE1{G.S.[Dap].F.L.S.P.E.[am]}|CHEM1{[C8]}$PEPTIDE1,CHEM1,3:R3-1:R2$$$V2.0”: the “final LC-MS purity” value is listed as 96% and the isolated yield turned out to be 22%.
Regarding “PEPTIDE1{G.S.[Dap].F.L.S.P.N.[am]}|CHEM1{[C8]}$PEPTIDE1,CHEM1,3:R3-1:R2$$$V2.0”, the “final LC-MS purity” value turned out to be 99% and the isolated yield was 25%.
Regarding “PEPTIDE1{G.S.[Dap].F.L.S.P.T.[am]}|CHEM1{[C8]}$PEPTIDE1,CHEM1,3:R3-1:R2$$$V2.0”, the “final LC-MS purity” value is on record as 99% and the isolated yield is recorded as 24%.
As for “PEPTIDE1{G.S.[Dap].F.L.S.P.Y.[am]}$$$$V2.0”, the “final LC-MS purity” value stood at 99% and the isolated yield turned out to be 36%.
Consider “PEPTIDE1{G.S.[Dap].F.L.S.P.Y.[am]}|CHEM1{[6FN]}$PEPTIDE1,CHEM1,3:R3-1:R2$$$V2.0”, for which the “final LC-MS purity” value was 99% and the isolated yield is on record as 25%.
Taken in the same sequence, the figures for “PEPTIDE1{G.S.[Dap].F.L.S.P.Y.[am]}|CHEM1{[C8]}$PEPTIDE1,CHEM1,3:R3-1:R2$$$V2.0” were 98% and 20%.
Taken in the same sequence, the figures for “PEPTIDE1{G.S.[Dap].[Nal-1].L.S.P.T.[am]}$$$$V2.0” were 99% and 10%.
The matching figures for “PEPTIDE1{G.S.[Dap].[Nal-2].L.S.P.T.[am]}$$$$V2.0”: 98% and 34%.
Take “PEPTIDE1{[Aib].S.[Dap].F.L.S.P.Y.[am]}$$$$V2.0”: the “final LC-MS purity” value is 99% and the isolated yield was 26%.
Turning to “PEPTIDE1{[Inp].S.[Dap].F.L.S.P.Y.[am]}$$$$V2.0”, the “final LC-MS purity” value was 99% and the isolated yield was 28%.
The matching figures for “PEPTIDE1{[Inp].S.[Dap].[Nal-1].L.S.P.T.[am]}|CHEM1{[6FN]}$PEPTIDE1,CHEM1,3:R3-1:R2$$$V2.0”: 99% and 33%.
